Article doi:10.1101/2021.08.25.457671
These are yes or no findings as the source states them, for the method shown. Binding seen in cells or lysates may run through a third protein. Some results given as binding are weak or reduced against the parent protein; the word gives no strength. For some assays here: Where a sequence is shown, tags or fusion partners need not be part of it.

The chains behind the UniProt entries cited, without tags or fusion partners.
UniProt P47079: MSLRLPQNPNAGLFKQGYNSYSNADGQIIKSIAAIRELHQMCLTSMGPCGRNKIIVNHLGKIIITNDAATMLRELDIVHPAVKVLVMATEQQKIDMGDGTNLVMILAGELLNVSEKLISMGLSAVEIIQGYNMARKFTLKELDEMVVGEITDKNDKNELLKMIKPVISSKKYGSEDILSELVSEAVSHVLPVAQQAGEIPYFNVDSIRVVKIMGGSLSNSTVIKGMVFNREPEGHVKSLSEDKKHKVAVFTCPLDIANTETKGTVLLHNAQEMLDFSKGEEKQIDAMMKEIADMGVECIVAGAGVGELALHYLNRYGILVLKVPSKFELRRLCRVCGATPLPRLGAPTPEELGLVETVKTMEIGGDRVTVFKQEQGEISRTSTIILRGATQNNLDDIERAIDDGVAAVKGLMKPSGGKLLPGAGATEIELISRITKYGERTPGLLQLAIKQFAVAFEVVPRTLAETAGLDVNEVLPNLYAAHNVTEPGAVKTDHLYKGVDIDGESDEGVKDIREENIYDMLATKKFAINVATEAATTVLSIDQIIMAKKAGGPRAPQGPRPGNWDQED
UniProt P10591: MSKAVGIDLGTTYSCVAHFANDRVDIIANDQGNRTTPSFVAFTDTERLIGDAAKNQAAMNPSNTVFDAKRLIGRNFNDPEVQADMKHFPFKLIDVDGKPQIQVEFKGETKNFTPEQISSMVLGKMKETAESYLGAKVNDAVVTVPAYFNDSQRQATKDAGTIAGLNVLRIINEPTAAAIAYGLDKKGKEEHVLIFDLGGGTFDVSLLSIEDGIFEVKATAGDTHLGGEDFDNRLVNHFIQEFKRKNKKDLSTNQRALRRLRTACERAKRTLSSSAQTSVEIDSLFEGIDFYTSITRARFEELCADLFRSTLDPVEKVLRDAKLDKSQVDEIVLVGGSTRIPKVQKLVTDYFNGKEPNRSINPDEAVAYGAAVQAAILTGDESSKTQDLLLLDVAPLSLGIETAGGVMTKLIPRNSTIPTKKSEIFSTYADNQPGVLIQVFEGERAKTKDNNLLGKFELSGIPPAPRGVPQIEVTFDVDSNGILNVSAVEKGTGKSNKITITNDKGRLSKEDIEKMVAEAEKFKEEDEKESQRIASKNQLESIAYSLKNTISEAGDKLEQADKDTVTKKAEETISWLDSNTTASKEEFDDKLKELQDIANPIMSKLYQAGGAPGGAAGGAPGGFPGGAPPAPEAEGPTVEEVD

Columns and labels:
Assay in all cases: co-IP
[1] = molecular target: T1, Ste11 R305A (non-methylatable mutant) (budding yeast) (UniProt P23561)
T1 sequence: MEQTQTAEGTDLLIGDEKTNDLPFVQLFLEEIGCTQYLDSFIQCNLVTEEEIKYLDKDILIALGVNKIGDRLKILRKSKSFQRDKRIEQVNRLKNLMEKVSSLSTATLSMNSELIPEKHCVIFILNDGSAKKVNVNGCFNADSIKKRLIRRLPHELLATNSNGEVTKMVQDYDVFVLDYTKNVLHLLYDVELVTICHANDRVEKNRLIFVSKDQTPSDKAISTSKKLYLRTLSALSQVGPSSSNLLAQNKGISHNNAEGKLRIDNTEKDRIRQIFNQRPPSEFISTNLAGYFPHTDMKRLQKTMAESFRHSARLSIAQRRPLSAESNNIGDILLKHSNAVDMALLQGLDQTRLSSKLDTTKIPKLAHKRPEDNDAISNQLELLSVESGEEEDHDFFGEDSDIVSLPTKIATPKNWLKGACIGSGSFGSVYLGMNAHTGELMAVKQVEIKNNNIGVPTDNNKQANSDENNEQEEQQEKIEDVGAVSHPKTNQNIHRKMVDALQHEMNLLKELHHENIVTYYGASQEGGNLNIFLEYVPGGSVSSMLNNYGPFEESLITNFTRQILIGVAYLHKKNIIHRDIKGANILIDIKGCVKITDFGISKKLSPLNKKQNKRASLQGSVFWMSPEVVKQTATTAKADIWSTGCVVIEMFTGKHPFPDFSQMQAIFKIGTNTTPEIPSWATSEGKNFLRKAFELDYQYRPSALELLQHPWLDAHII

[2] = molecular target: T2, HA-tagged Sse1 (budding yeast) (UniProt P32589)
T2 sequence: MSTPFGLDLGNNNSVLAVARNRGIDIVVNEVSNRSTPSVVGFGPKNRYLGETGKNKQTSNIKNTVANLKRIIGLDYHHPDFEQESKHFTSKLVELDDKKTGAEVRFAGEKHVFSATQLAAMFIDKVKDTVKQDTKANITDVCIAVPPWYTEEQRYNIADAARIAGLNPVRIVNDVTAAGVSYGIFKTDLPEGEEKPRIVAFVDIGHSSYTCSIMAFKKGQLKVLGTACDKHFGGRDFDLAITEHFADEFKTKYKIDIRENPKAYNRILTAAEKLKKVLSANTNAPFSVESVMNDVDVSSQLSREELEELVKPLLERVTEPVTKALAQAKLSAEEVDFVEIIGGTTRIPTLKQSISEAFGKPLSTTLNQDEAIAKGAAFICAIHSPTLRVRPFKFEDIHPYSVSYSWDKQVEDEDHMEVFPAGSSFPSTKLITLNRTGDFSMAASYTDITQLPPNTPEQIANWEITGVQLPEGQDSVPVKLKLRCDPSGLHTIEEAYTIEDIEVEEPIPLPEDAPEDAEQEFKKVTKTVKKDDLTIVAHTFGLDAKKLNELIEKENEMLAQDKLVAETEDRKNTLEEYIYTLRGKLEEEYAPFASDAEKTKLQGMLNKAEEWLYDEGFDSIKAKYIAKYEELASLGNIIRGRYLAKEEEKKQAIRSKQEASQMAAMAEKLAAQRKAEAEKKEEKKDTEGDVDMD

[3] = molecular target: T3, Mtw1 (bait of the co-IP in yeast) (budding yeast) (UniProt P39731)
T3 sequence: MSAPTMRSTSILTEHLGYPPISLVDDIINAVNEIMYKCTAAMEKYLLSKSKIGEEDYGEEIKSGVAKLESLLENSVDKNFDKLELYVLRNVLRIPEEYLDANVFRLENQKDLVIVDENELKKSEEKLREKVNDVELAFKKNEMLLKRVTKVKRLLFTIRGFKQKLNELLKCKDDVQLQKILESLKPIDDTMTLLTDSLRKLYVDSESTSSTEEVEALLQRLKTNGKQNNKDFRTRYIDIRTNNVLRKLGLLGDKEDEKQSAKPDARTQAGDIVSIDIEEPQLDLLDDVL

[4] = molecular target: HA-tagged Cct8 (budding yeast) (UniProt P47079)
[5] = molecular target: T4, HA-tagged Ura8 (budding yeast) (UniProt P38627)
T4 sequence: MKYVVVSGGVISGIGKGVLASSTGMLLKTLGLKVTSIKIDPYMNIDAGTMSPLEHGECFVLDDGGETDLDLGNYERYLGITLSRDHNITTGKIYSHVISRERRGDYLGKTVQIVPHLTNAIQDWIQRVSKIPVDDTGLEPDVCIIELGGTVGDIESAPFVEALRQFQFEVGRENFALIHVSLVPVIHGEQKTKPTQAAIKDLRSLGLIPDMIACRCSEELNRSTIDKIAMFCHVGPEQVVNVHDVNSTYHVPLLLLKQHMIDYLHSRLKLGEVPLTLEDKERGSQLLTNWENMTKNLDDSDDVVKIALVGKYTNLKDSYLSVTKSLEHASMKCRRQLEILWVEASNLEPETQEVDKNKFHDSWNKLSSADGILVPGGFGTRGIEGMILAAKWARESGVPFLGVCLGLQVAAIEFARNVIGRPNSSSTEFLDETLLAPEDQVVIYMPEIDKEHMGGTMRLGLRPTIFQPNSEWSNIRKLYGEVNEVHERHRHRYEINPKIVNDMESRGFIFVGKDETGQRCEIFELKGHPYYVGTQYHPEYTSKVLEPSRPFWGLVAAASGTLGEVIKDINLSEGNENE

binding [1]: binds
binding [2]: binds
binding [3]: binds
binding [4]: binds
binding [5]: binds
Substance: Ssa1 found by immunoblot in co-immunoprecipitates of client proteins from yeast (from UniProt P10591 1-642)
